Our source for the binding values is publication PMC4455283, “Crystal structure of TRIM20 C-terminal coiled-coil/B30.2 fragment: implications for the recognition of higher order oligomers” (Scientific Reports, 2015).

No constants are given. Whether binding was seen depends on the method and setting.

The target in this assay is isolated TRIM20 B30.2 domain (human) (UniProt O15553). The experiment in a line: AUC; sedimentation velocity analytical ultracentrifugation at 4 °C; both purified.

B1: isolated TRIM20 B30.2 domain (domain or fragment, UniProt O15553 577-781)
chain: TLRSEMEMFNVPELIGAQAHAVNVILDAETAYPNLIFSDDLKSVRLGNKWERLPDGPQRFDSCIIVLGSPSFLSGRRYWEVEVGDKTAWILGACKTSISRKGNMTLSPENGYWVVIMMKENEYQASSVPPTRLLIKEPPKRVGIFVDYRVGSISFYNVTARSHIYTFASCSFSGPLQPIFSPGTRDGGKNTAPLTICPVGGQGPD
For the molecule B1, the binding entry is given as “no binding”.
